Values from PubChem BioAssay AID1259254 (NCATS, 2017)

Aim: 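Finding genes that stop cells copying their DNA twice in one cycle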 (primary screen)
Cells: human HCT116 colorectal cancer cells
Reagents: single siRNA against human genes
Timing: 3 days
Read-out: 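Imaged Hoechst DNA stain sorts each cell into a cycle phase by DNA amount; per plate, G2 fraction set to 0% for non-targeting and 100% for GMNN siRNA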
Direction: G2 robust z-score and G2 cells, % of GMNN control: higher = more G2 cells, more excess DNA replication
Active means: 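Active siRNAs have a G2 robust z of 5 or more median absolute deviations over the median, which in these data means about 38% or higher of GMNN control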
Here is one part, drawn at random, of about 59,000 reagents tested. In the full data, about 1,550 (2.6%) were called active. 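G2 share is only a proxy for re-replication; each gene was hit by three separate siRNAs, and active genes were retested.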 The numbers tell different reagents against one gene apart. Further read-outs or replicates are left out here. Not given: the amount of reagent.

| Target gene | reagent | G2 robust z-score | G2 cells, % of GMNN control | Call |
| --- | --- | --- | --- | --- |
| RPL26P30 | 1 | -0.351 | 0.497 | inactive |
| RPL26P30 | 2 | 6.27 | 47 | active |
| RPL26P30 | 3 | -0.884 | -3.25 | inactive |
| OR51B5 | 1 | 0.913 | 9.39 | inactive |
| OR51B5 | 2 | 3.4 | 26.9 | inactive |
| OR51B5 | 3 | -0.559 | -0.968 | inactive |
| RBM15 | 1 | -1.11 | -4.84 | inactive |
| RBM15 | 2 | -0.399 | 0.159 | inactive |
| RBM15 | 3 | 0.149 | 4.01 | inactive |
| KLHL23 | 1 | 3.92 | 30.6 | inactive |
| KLHL23 | 2 | -0.0333 | 2.73 | inactive |
| KLHL23 | 3 | -0.76 | -2.38 | inactive |
| CD99 | 1 | -1.2 | -5.48 | inactive |
| CD99 | 2 | -0.316 | 0.744 | inactive |
| CD99 | 3 | 5.39 | 40.9 | active |
| GNLY | 1 | 0.0947 | 3.63 | inactive |
| GNLY | 2 | -0.526 | -0.731 | inactive |
| GNLY | 3 | 3.32 | 26.3 | inactive |
| KCTD15 | 1 | 0.663 | 7.63 | inactive |
| KCTD15 | 2 | 3.5 | 27.6 | inactive |
| KCTD15 | 3 | 0.646 | 7.51 | inactive |
| ZHX1 | 1 | 5.1 | 38.9 | active |
| ZHX1 | 2 | -1.05 | -4.41 | inactive |
| ZHX1 | 3 | -0.944 | -3.67 | inactive |
| KIF3C | 1 | -0.898 | -3.35 | inactive |
| KIF3C | 2 | -0.746 | -2.28 | inactive |
| KIF3C | 3 | -0.165 | 1.8 | inactive |
| CDKN2A | 1 | 1.34 | 12.4 | inactive |
| CDKN2A | 2 | -0.152 | 1.9 | inactive |
| CDKN2A | 3 | 1.71 | 15 | inactive |

In a second layout: entries from further up
Target gene	reagent	G2 robust z-score	G2 cells, % of GMNN control	Call
KCTD15	2	3.5	27.6	inactive
KCTD15	3	0.646	7.51	inactive
ZHX1	1	5.1	38.9	active
ZHX1	2	-1.05	-4.41	inactive
ZHX1	3	-0.944	-3.67	inactive
